Laboratory results from patent publication US20230390223A1, “ADMINISTRATION OF […] COMPOSITIONS FOR TREATING NERVOUS SYSTEM DISORDERS” (PaxMedica, Inc., priority 2020, published 2023).
Some entries share one result that the patent states for a list of compounds.

System: B6.129P2-Fmr1tm1Cgr/J transgenic (TG) mice
Assay: Step through passive avoidance test (learning and memory)
Format: in vivo
Details: 5-minute test
Source text: The Passive Avoidance task is useful for evaluating the effect of novel chemical entities on learning and memory as well as studying the mechanisms involved in rodent models of CNS disorders. In this test, the test chamber is divided into a lighted compartment and a dark compartment, with a gate between the two. The test animals explored both compartments on the first day. The next day, they are given a mild foot shock in the dark compartment and they will learn to associate the dark compartment with the foot shock. In order to test their learning and memory, the mice are then placed back in the lighted compartment. Passive avoidance behavior of rodents is defined as the suppression of their innate preference for the dark compartment. Mice with normal learning and memory will avoid entering the dark chamber. Learning and memory from the previous day is measured by recording the latency to cross through the gate between the two compartments. See, J. David Sweatt, Chapter 4: Rodent Behavioral Learning and Memory Models, Editor: J. David Sweatt. Mechanisms of Memory (Second Edition), Academic Press, 2010, Pages 76-103, ISBN 9780123749512. […]
Male B6.129P2-Fmr1tm1Cgr/J TG (TG) mice were purchased from Jackson Laboratories, Bar Harbor, Maine. […] Body weights of all mice were recorded for health monitoring purposes. […]

| Compound | percentage of time spent in the light zone on the test day (A-804598 IP 30 mg/kg/day, tangeretin IP 10 mg/kg/day, emodin+piperine PO 20 mg/kg each twice per day) | percentage of time spent in the light zone on the test day (IN suramin groups) |
| --- | --- | --- |
| COc1ccc(-c2cc(=O)c3c(OC)c(OC)c(OC)c(OC)c3o2)cc1 [Tangeretin, 5,6,7,8-tetramethoxy-2-(4-methoxyphenyl)-4H-1-benzopyran-4-one] | greater than 70% | – |
| Cc1ccc(C(=O)Nc2ccc(S(=O)(=O)O)c3cc(S(=O)(=O)O)cc(S(=O)(=O)O)c23)cc1NC(=O)c1cccc(NC(=O)Nc2cccc(C(=O)Nc3cc(C(=O)Nc4ccc(S(=O)(=O)O)c5cc(S(=O)(=O)O)cc(S(=O)(=O)O)c45)ccc3C)c2)c1 [suramin, 1,3,5-Naphthalenetrisulfonic acid, 8,8′-[carbonylbis[imino-3,1-phenylenecarbonylimino(4-methyl-3,1-phenylene)carbonylimino]]bis-] | – | greater than 70% |
